These are yes or no findings as the source states them, for the method shown. Binding seen in cells or lysates may run through a third protein.
Assays:
[1] = biological target: p53 (endogenous, HeLa) (human (endogenous in HeLa)) (UniProt P04637); test: co-IP; crude nuclear extract (1 mg) of Nutlin-3a-treated (10 μM, 4 h) IMR-32 or HeLa cells, anti-p53 (Ab-7) or control sheep IgG overnight at 4°C, Protein G agarose, washes with 0.15% NP-40 in nuclei lysis buffer, Western blot
[2] = biological target: p53 (endogenous, IMR-32 nuclear extract) (human (endogenous in IMR-32)) (UniProt P04637); test: as above

binding [1] | binding [2] | Substance
no binding |  | MAX (endogenous, HeLa) (from UniProt P61244 1-160)
 | no binding | MAX (endogenous, IMR-32 nuclear extract) (from UniProt P61244 1-160)

— publication PMC5945521
